Measured values published in PubChem BioAssay AID687030 (Broad Institute, 2013).
This is a selection; strong and weak results do not stand in their true shares. Entries with a potency or affinity are not part of this list. Calls of active or inactive are those of the source. How the calls were made is not given here.

Test: viability loss in BHK-21 cells – cell-based, plate reader, cherry-pick samples, cytotoxicity control, dose response (AID 687030);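 further: cells were exposed to compound for three days before reading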
Conditions: at 19.5 µM (top of the series)

Compound | activity change, negative = toxicity
CCCCCCCCc1ccc(O)cc1 | inactive: -4.83%
